Measured values reported in PubChem BioAssay (NCATS).
This list was built around the results that the source calls inconclusive (neither active nor inactive); the mix of calls is not that of the screen. Potencies beside an inconclusive call are fits to weak or partial responses and may not hold up. Calls of active or inactive are those of the source. Calls come from the whole dose curve; as a rule, active = well fitted cell-killing curve with a large enough effect; inconclusive = small, poorly fitted or top-dose-only effect; inactive = no such curve, though single readings can be large or run the other way.

experiment: qHTS of pediatric cancer cell lines to identify multiple opportunities for drug repurposing: Confirmatory screen for U-2 OS cells (AID 1347122); conditions: U-2 OS osteosarcoma cell viability; series mostly up to 45.9 µM; activity change, negative = cytotoxicity: at the top concentration; note: nearly all actives have a fitted effect of over 65% in size
Text: Drug repurposing or repositioning has been offered as a strategy for drug development in oncology programs. This approach has special potential for childhood cancers and other rare or orphan diseases, where the expected return on new drug development has been a disincentive to pharmaceuticals.
In this project we exploit the poly-pharmacology of drugs to discover new indications via phenotypic screening of a panel of 19 well-characterized cell lines derived from solid tumors seen in children and adolescents. The goal is to identify approved drugs with previously unrecognized anticancer properties that has the potential to reveal new mechanisms and biological processes involved in carcinogenesis or drug resistance. We employed a titration-based paradigm (quantitative high-throughput screening or qHTS), where all compounds were tested at multiple concentrations for their effect on cell viability. Concentration-response curves (CRCs) were derived directly from the primary screen, and both potency and efficacy values were used to identify compounds with robust bioactivity profiles. We screened the NIH Chemical Genomics Center (NCGC) Pharmaceutical Collection (NPC) and Mechanism Interrogation Plate (MIPE) small molecule collections of approved and investigational compounds against these cell lines; and measured metabolically active cells after 48 hours of compound treatment as a proxy for cell viability.
Assay Submitter: Nathalia J. Martinez, National Center for Advancing Translational Sciences, National Institutes of Health, Rockville, MD, USA; email: natalia.martinez@nih.gov
[1] Shen, M et al. Quantitative high-throughput phenotypic screening of pediatric cancer cell lines identifies multiple opportunities for drug repurposing. Oncotarget 2017 Dec 19;9(4):4758-4772. PMID 29435139.
The cells were obtained from University of North Carolina (UNC), Pediatric Preclinical Testing Program (PPT), and Coriell Institute (CI).
qHTS cell viability assay:
Cells were assayed in growth media at a density of 500-1,000 cells/well. Five microliters of cells were dispensed into 1,536-well, white, solid-bottom, TC-treated plates (Greiner Bio One) using a multidrop dispenser and incubated at 37 degrees C, 5% CO2, under a humidified atmosphere for 5 hours. Twenty-three nanoliters of compounds and controls (neutral control DMSO or positive control bortezomib at final concentration of 2.3 µM) were subsequently transferred by Kalypsys pintool. For primary screens, the MIPE collection was tested at 11-point dilutions (final concentrations range from 0.78 nM to 46 µM) and the NPC collection at 8-point dilutions (final concentrations range from 0.59 nM to 46 µM). Compounds tested in follow-up screens were assayed at 11-point dilutions. Cells were incubated for 48 hours, followed by addition of 3 µL of CellTiter-Glo (Promega). After a 15 min incubation at room temperature, samples were analyzed for luminescence intensity using a ViewLux High-throughput CCD imager equipped with clear filters.
Potency is the fitted concentration of half-maximal effect.

Structure (SMILES) | Potency | outcome | activity change, negative = cytotoxicity
COc1cc2ncnc(Nc3cc(Br)c(O)c(Br)c3)c2cc1OC | inconclusive: 0.928 µM [cytotoxic, full curve, poor fit] | – | –
OCCn1cc(-c2ccc3c(c2)CCC3=NO)c(-c2ccncc2)n1 | inconclusive: 8.51 µM [cytotoxic, full curve] | – | –
COc1nc(N)nc2c1ncn2[C@@H]1O[C@H](CO)[C@@H](O)[C@@H]1O | – | inactive | –
Cc1c(CN2CCN(S(C)(=O)=O)CC2)sc2c(N3CCOCC3)nc(-c3cnc(N)nc3)nc12 | inconclusive: 1.04 µM [cytotoxic, full curve] | – | –
COc1cccc(Nc2c(C(N)=O)cnc3c(C)cc(S(=O)(=O)c4cccc(C(=O)N(C)C)c4)cc23)c1 | – | – | inactive: 20.9% [at 29.5 µM]
CC(=O)O[C@@]12CO[C@H]1C[C@H](O)[C@@]1(C)C(=O)[C@H](O)C3=C(C)[C@@H](OC(=O)C(O)[C@@H](NC(=O)OC(C)(C)C)c4ccccc4)C[C@@](O)([C@@H](OC(=O)c4ccccc4)[C@@H]21)C3(C)C (stereo not given in full) | inconclusive: 0.0585 µM [cytotoxic, full curve] | – | –
C=CC(=O)Nc1cccc(Oc2nc(Nc3ccc(N4CCN(C)CC4)cc3OC)ncc2Cl)c1 | inconclusive: 18.5 µM [cytotoxic, partial curve, poor fit] | – | –
COc1cc(CNC(=O)CCCCC=CC(C)C)ccc1O | inconclusive: 29.3 µM [cytotoxic, single point] | – | –
CS(=O)(=O)Nc1ccc([N+](=O)[O-])cc1Oc1ccccc1 | – | – | inactive: -2.49%
CO[C@H]1/C=C\O[C@@]2(C)Oc3c(C)c(O)c4c(O)c(c(C=NN5CCN(C6CCCC6)CC5)c(O)c4c3C2=O)NC(=O)C(C)=CC=C[C@H](C)[C@H](O)[C@@H](C)[C@@H](O)[C@@H](C)[C@H](OC(C)=O)[C@H]1C | – | – | inactive: -12.9%
COC1=C2C[C@@H](C)C[C@H](OC)[C@@H](O)[C@@H](C)C=C(C)[C@H](OC(N)=O)[C@@H](OC)C=CC=C(C)C(=O)NC(=CC1=O)C2=O | active: 1.04 µM | – | –
CCOC(=O)c1ccc(C#Cc2ccc3c(c2)C(C)(C)CCS3)nc1 | inconclusive: 36.9 µM [cytotoxic, single point] | – | –
CC(C)(N)c1ccc(-c2nc3ccccc3nc2-c2ccccc2)cc1 | – | – | inactive: -48.3%
Nc1ncn([C@H]2C[C@H](O)[C@@H](CO)O2)c(=O)n1 | – | – | inactive: 8.61%
CN(CC(=O)N(Cc1ccc(C2CCCCC2)cc1)c1ccc(C(=O)O)c(O)c1)S(=O)(=O)c1c(F)c(F)c(F)c(F)c1F | inconclusive: 32.9 µM [cytotoxic, single point] | – | –
CN(C)CCCN1c2ccccc2CCc2ccc(Cl)cc21 | inconclusive: 23.3 µM [cytotoxic, single point] | – | –
CC(=O)O[C@H]1C(=O)[C@@]2(C)C([C@H](OC(=O)c3ccccc3)[C@]3(O)C[C@H](OC(=O)[C@H](O)[C@@H](NC(=O)c4ccccc4)c4ccccc4)C(C)=C1C3(C)C)[C@]1(OC(C)=O)CO[C@@H]1C[C@@H]2O (stereo not given in full) | inconclusive: 0.147 µM [cytotoxic, full curve] | – | –
COC1CCC(C(=O)c2ccc3nc4c(cc3c2)CCCO4)CC1 (stereo not given) | inconclusive: 32.9 µM [cytotoxic, single point] | – | –
Cc1cnc(-c2cc(N3CCN(C(=O)CCS(C)(=O)=O)CC3)ncc2Cl)c(C)c1 | – | – | inactive: -1.68%
COc1cc2nccc(Oc3ccc(NC(=O)Nc4cc(C)on4)c(Cl)c3)c2cc1OC | inconclusive: 0.0522 µM [cytotoxic, full curve, poor fit] | – | –

As entered above.
For Potency, `CC(=O)O[C@@]12CO[C@H]1C[C@H](O)[C@@]1(C)C(=O)[C@H](O)C3=C(C)[C@@H](OC(=O)C(O)[C@@H](NC(=O)OC(C)(C)C)c4ccccc4)C[C@@](O)([C@@H](OC(=O)c4ccccc4)[C@@H]21)C3(C)C` (stereo not given in full) has the entry inconclusive: 0.0585 µM [cytotoxic, full curve]
For Potency, `COC1CCC(C(=O)c2ccc3nc4c(cc3c2)CCCO4)CC1` (stereo not given) has the entry inconclusive: 32.9 µM [cytotoxic, single point]

(further entries)

Structure (SMILES) | Potency | outcome | activity change, negative = cytotoxicity
CN1CCN(c2cc(C(=O)Nc3ccc4c(c3)-c3c(c(C(N)=O)nn3-c3ccc(F)cc3)CC4)c(Cl)cn2)CC1 | inconclusive: 32.9 µM [cytotoxic, single point] | – | –
COCC(=O)NCC=Cc1ccc2ncnc(Nc3ccc(Oc4ccc(C)nc4)c(C)c3)c2c1 | inconclusive: 8.27 µM [cytotoxic, partial curve] | – | –
Cc1cn(-c2cc(NC(=O)c3ccc(C)c(Nc4nccc(-c5cccnc5)n4)c3)cc(C(F)(F)F)c2)cn1 | inconclusive: 9.27 µM [cytotoxic, single point] | – | –
OC[C@H](Cc1ccccc1)Nc1nc(Oc2ccc3c(c2)CCC3)nc2c1ncn2Cc1ccc(-c2ccccc2)cc1 | inconclusive: 20.8 µM [cytotoxic, partial curve] | – | –
COc1cc(Nc2ncc3c(n2)-c2ccc(Cl)cc2C(c2c(F)cccc2OC)=NC3)ccc1C(=O)O | active: 10.4 µM | – | –
CN[C@@H]1CN(c2ccc3c(=O)c(C(=O)O)cn(-c4nccs4)c3n2)C[C@@H]1OC | inconclusive: 16.2 µM [cytotoxic, single point] | – | –
CC(C)(C)c1cc(C(C)(C)C)c(NC(=O)c2c[nH]c3ccccc3c2=O)cc1O | inconclusive: 36.9 µM [cytotoxic, single point] | – | –
CCCCn1c(=O)n(Cc2ccccc2F)c(=O)c2[nH]c(Cc3ccc(NC(C)=O)cc3)nc21 | inconclusive: 16.5 µM [cytotoxic, partial curve, poor fit] | – | –
Cc1cccc(-c2[nH]c(C(C)(C)C)nc2-c2ccc3c(c2)OCO3)n1 | inconclusive: 1.17 µM [cytotoxic, full curve, poor fit] | – | –
CCOc1ccn(-c2ccc(F)cc2)c(=O)c1C(=O)Nc1ccc(Oc2ccnc(N)c2Cl)c(F)c1 | – | – | inactive: 13.8%
COc1ccc(OC)c(-c2nnc3ccc(-c4ccc(OC)c(O[C@@H]5CCOC5)c4)nn23)c1 | inconclusive: 11.7 µM [cytotoxic, full curve] | – | –
CCC(=O)O[C@]1(C(=O)SCF)[C@H](C)C[C@H]2[C@@H]3C[C@H](F)C4=CC(=O)C=C[C@]4(C)[C@@]3(F)[C@@H](O)C[C@@]21C | inconclusive: 0.0293 µM [cytotoxic, full curve, poor fit] | – | –
O=C(NOC[C@H](O)CO)c1ccc(F)c(F)c1Nc1ccc(I)cc1F | active: 1.31 µM | – | –
Nc1nc(N)nc(-c2cc(Cl)ccc2Cl)n1 | inconclusive: 0.0269 µM [cytotoxic, full curve, poor fit] | – | –
O=C(NC1CCNCC1)c1[nH]ncc1NC(=O)c1c(Cl)cccc1Cl | active: 1.85 µM | – | –
Cc1c(C(=O)NN2CCCCC2)nn(-c2ccc(Cl)cc2Cl)c1-c1ccc(Cl)cc1 | active: 16.5 µM | – | –
CCc1c2c(nc3ccc(OC(=O)N4CCC(N5CCCCC5)CC4)cc13)-c1cc3c(c(=O)n1C2)COC(=O)[C@]3(O)CC | inconclusive: 14.7 µM [cytotoxic, partial curve] | – | –
CC(C)(C)OC(=O)Nc1ccc(-c2cc(C(=O)NCCCCCCC(=O)NO)no2)cc1 | active: 1.47 µM | – | –
CC(C)NC[C@@H](C(=O)N1CCN(c2ncnc3c2[C@H](C)C[C@H]3O)CC1)c1ccc(Cl)cc1 | inconclusive: 14.7 µM [cytotoxic, partial curve, poor fit] | – | –
CC1CNc2c(cccc2S(=O)(=O)N[C@@H](CCCN=C(N)N)C(=O)N2CC[C@@H](C)C[C@@H]2C(=O)O)C1 (stereo not given in full) | – | – | inactive: 11%
